Results of single-concentration screens

Protein sequences, listed by entry. Tags and fused reporters are not part of them. Residues count along the entry.
UniProt P9WFT3, whole entry: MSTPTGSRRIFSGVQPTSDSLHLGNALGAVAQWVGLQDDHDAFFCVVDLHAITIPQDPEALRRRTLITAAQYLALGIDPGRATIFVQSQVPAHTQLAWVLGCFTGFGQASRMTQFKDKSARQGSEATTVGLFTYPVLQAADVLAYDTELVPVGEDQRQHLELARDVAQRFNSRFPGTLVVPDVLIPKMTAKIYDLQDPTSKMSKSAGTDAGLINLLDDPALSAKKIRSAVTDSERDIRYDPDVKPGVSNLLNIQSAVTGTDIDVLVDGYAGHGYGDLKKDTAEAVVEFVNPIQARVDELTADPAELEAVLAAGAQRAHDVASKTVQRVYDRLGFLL
UniProt P9WPC5, whole entry: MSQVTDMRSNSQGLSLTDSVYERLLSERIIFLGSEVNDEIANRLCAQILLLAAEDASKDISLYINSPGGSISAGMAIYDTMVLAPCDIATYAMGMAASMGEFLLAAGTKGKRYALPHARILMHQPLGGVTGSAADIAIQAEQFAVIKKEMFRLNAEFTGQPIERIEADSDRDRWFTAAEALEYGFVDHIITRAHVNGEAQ
UniProt P9WPC3, whole entry partner: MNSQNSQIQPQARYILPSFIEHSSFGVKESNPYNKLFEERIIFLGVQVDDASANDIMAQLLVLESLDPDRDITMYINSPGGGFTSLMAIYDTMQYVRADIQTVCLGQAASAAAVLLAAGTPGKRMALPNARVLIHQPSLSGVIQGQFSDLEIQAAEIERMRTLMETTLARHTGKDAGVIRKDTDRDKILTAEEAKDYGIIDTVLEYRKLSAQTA
UniProt Q8IDJ8, 1-583: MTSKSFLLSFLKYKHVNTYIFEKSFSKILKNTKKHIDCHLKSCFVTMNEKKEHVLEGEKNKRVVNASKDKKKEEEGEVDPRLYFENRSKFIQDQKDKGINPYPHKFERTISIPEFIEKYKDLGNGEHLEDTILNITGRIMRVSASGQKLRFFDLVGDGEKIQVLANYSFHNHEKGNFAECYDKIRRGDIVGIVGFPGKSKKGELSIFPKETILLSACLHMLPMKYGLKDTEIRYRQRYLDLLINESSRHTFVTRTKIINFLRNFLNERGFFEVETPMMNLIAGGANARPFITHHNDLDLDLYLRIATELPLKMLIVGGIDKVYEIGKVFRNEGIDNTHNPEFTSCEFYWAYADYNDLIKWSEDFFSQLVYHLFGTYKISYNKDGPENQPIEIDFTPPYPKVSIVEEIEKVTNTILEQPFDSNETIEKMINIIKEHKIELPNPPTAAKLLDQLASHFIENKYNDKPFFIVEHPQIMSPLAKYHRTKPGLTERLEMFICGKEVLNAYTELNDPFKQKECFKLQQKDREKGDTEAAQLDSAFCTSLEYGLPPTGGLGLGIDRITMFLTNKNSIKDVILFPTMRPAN
UniProt P9WNZ1, whole entry: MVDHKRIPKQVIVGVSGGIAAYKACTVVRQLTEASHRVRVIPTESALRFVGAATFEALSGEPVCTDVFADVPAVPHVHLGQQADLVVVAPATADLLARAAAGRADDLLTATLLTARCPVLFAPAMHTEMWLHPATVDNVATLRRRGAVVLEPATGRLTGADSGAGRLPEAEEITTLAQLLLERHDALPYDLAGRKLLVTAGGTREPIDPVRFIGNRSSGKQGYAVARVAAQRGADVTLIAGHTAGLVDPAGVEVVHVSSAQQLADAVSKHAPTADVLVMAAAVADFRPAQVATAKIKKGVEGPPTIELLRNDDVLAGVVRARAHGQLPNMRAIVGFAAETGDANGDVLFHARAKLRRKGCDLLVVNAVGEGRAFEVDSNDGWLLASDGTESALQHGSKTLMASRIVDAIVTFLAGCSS

Source: ChEMBL document CHEMBL3988442, “University of Dundee, Small-Polar-MMV Screening Library” (2021).

A: 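Enzyme assay of tryptophanyl-tRNA synthetase; the read-out is not stated. Target: Tryptophan-tRNA ligase, Mycobacterium tuberculosis (UniProt P9WFT3). Tested at 10 µM. Direction is not recorded; retested compounds ran higher, which suggests that high means inhibition. Size under these conditions: about 65,000 compounds, about 64 of them at 50% or above in at least one test.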
B: 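Protease assay of ClpP1P2, read by the AMC dye that it sets free. Target: ClpP1P2, Mycobacterium tuberculosis (UniProt P9WPC5 and UniProt P9WPC3). Tested at 50 µM. Higher reads as stronger inhibition, judged from the few compounds that gave an IC50. Most other retested compounds had strongly negative values. Size under these conditions: about 69,000 compounds, about 10 of them at 50% or above in at least one test.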
C: 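Cell assay of Leishmania donovani living inside macrophages; the read-out is not stated. Compounds at 30 µM. Higher reads as stronger inhibition (inferred: compounds with an IC50 in retests scored well above the rest). Of about 69,000 compounds tested this way, about 1,000 (1.5%) reached 50% or more in at least one test.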
D: 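Lysine-tRNA ligase, Plasmodium falciparum 3D7 (UniProt Q8IDJ8). Enzyme assay of the cytosolic lysyl-tRNA synthetase in 384-well plates, read by luminescence. Concentration: 30 µM. Direction is inferred from only a few compounds that gave an IC50; most scored high, so higher reads as stronger inhibition. Size under these conditions: about 69,000 compounds, about 49 of them at 50% or above in at least one test.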
E: 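Enzyme assay of CoaBC with a phosphate dye (Biomol Green) read at 650 nm. Target: Coenzyme A biosynthesis protein CoaBC, Mycobacterium tuberculosis (UniProt P9WNZ1). Tested at 30 µM. Direction is inferred from only a few compounds that gave an IC50; most scored high, so higher reads as stronger inhibition. Most strong results did not repeat in a second test. Of about 67,000 compounds tested this way, about 40 (0.06%) reached 50% or more in at least one test.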

Results are given as percent effect.
The controls that fix the scale are not given in the record; negative values are as filed.
This is an unselected part of the compounds tested.
A dash means the value is not listed here; it may have been measured.

Compound,A,B,C,D,E
NC(=O)c1cnc2n1CCN(C(=O)c1cccc(Cn3cccn3)c1)C2,-0.08157%,12%,23.6%,4.116%,-4.474%
Cn1nc(C(C)(C)C)cc1NC(=O)Cn1ccccc1=O,-2.3%,3.313%,17.84%,8.361%,5.645%
COC(=O)NCCCn1ccnc1-c1ccccc1,6.388%,-1.007%,-21.97%,2.395%,2.421%
CC(=O)N1CCO[C@@H]2CN(Cc3ccccc3Cl)C[C@@H]2C1,-,-4.722%,-,5.035%,0%
CN(Cc1ccccc1OC(F)(F)F)C(=O)C1CC1,-2.812%,6.51%,11.34%,5.037%,-34.06%
Brc1cccc(-c2noc(C3COCCO3)n2)c1 (stereo not drawn),-3.43%,3.869%,-5.81%,8.258%,-3.074%
COCC(C)NC(=O)NCCc1cccc(OC)c1O (stereo not drawn),14.48%,-4.562%,19.3%,6.804%,2.764%
O=C(O)c1ccccc1-c1ccc(CN2CCC(CO)CC2)cn1,-1.339%,-21.25%,29.59%,1.212%,9.466%
Cc1cccnc1N1CCN(Cc2cc(O)c3cccc(F)c3n2)CC1,1.605%,-10.12%,17.83%,3.19%,2.451%
COCCN1CCCn2cnc(CNC(=O)N(C)C)c2C1,1.622%,-7.945%,-,0.9442%,-2.5%
CC(C)C(=O)NCCc1cc2nc(-c3ccncc3)ccn2n1,-7.916%,-3.69%,4.751%,1.047%,0.2466%
O=C(NCCCO)c1cnc(-c2ccccc2)nc1O,-0.972%,2.601%,8.666%,4.606%,-6.746%
CN1CCCC1CNC(=O)CCOc1ccc(Br)cc1 (stereo not drawn),-0.06277%,-32.36%,24.74%,-1.732%,2.662%
O=C(CC1CCC2(CC1)CCN(Cc1ccncc1)CC2)N1CCCC1,-0.6352%,-8.752%,-,-4.028%,-8.889%
Cc1cccc(N2CCN(CCC(=O)NCc3cccnc3)CC2)c1,4.42%,-12.89%,17.18%,5.528%,1.568%
CC(C)COc1ccc(C2SCC(=O)Nc3c2c(=O)[nH]n3C(C)C)cc1 (stereo not drawn),0.08643%,-8.566%,28.1%,0.2801%,-6.842%
CCN1CCc2c(cccc2NC(=O)N(C)C2CCSC2)C1 (stereo not drawn),1.751%,1.536%,19.11%,1.188%,-0.2525%
COc1ccc(C(C)(C)C(=O)NCc2n[nH]c(=O)[nH]2)cc1,-1.83%,4.353%,21.82%,0.1696%,-12.61%
CCc1nccn1C1CCCN(C(=O)C2=NN(C)C(=O)CC2)C1 (stereo not drawn),1.554%,-5.35%,-10.71%,0.3176%,0.1164%
O=C1CC(c2ccccc2)C2(CCN(Cc3ccccn3)CC2)N1 (stereo not drawn),0.229%,3.925%,23.24%,3.586%,-0.2418%
CN(C)[C@@H]1CN(C(=O)c2ccc(C#N)cc2)[C@@H]2CCCO[C@H]12,3.779%,10.38%,-,7.726%,-
COCC(=O)N1CCC(c2cc3nc(C)cc(C(F)(F)F)n3n2)CC1,1.244%,44.71%,11.76%,-2.006%,1.577%
Cn1cc(CN2C[C@@H]3COC[C@]3(C(=O)NCCc3ccccc3)C2)cn1,0.8167%,-9.344%,-,1.273%,1.481%
CN(Cc1ccncc1)C1COC2(CCN(Cc3nccn3C)CC2)C1 (stereo not drawn),3.487%,-2.447%,-,4.35%,7.983%
CCn1cc(CNc2ccc3nccnc3c2)cn1,1.211%,9.45%,-17.71%,32.77%,12.3%
Cc1cc2c(cc1NC(=O)NC(C)(C)C)OCO2,1.25%,-0.2121%,-22.07%,4.46%,3.479%
[H][C@@]12C[C@H](C)O[C@]1([H])CCN(C(=O)CCc1ccccc1)C2,-,-,4.973%,-,-
CC(CCN1CCC(n2cc(CCO)nn2)CC1)c1ccccc1 (stereo not drawn),-3.915%,7.664%,17.91%,4.028%,0.7407%
Cc1cc(-c2nccs2)nc(C2CCN(Cc3ccc(F)cc3)CC2)n1,0.4933%,-24.23%,-,0.4555%,6.311%
Cn1cc(CN2CCOCC3(CCN(C4CCOCC4)C3)C2)cn1 (stereo not drawn),-7.149%,3.844%,21.67%,4.746%,0.4202%

3 of the entries, repeated:

| Compound | A | B | C | D | E |
|---|---|---|---|---|---|
| `O=C1CC(c2ccccc2)C2(CCN(Cc3ccccn3)CC2)N1` (stereo not drawn) | 0.229% | 3.925% | 23.24% | 3.586% | -0.2418% |
| `Cc1cc2c(cc1NC(=O)NC(C)(C)C)OCO2` | 1.25% | -0.2121% | -22.07% | 4.46% | 3.479% |
| `CCc1nccn1C1CCCN(C(=O)C2=NN(C)C(=O)CC2)C1` (stereo not drawn) | 1.554% | -5.35% | -10.71% | 0.3176% | 0.1164% |